Results are given in words; binding and its absence hold for the method and conditions named. Binding calls can cover weak binding; strength is not graded here.
Key:
[1] = molecular target: T1, subunit ND1 of respiratory complex I from Yarrowia lipolytica (Yarrowia lipolytica) (UniProt Q9B6E8); assay: cryo-EM structure; complex I purified from Y. lipolytica, deactive state, 2 μM in 20 mM Tris-HCl, pH 7.2, 100 mM NaCl, 1 mM EDTA, 0.025% DDM; map of 4.3 Å from 124,626 particles; both purified
T1 sequence: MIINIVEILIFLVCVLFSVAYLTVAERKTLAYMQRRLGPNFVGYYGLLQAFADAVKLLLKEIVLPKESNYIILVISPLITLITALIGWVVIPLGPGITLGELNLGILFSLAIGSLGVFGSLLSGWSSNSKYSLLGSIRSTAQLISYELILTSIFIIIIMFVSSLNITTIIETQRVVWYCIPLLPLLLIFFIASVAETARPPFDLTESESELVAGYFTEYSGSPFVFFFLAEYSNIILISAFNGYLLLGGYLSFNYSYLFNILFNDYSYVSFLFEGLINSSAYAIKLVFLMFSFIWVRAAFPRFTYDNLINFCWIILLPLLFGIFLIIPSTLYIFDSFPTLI

[2] = molecular target: T2, subunit ND3 of respiratory complex I from Yarrowia lipolytica (Yarrowia lipolytica) (UniProt Q9B6C7); assay: as above
T2 sequence: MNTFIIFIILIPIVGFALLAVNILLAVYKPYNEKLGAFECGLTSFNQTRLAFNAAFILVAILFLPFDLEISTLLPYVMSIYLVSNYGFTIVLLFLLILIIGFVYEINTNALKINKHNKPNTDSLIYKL

[3] = molecular target: T3, accessory subunit N7BM of respiratory complex I from Yarrowia lipolytica (Yarrowia lipolytica) (UniProt Q6CG53); assay: cryo-EM structure; 3D class of the deactive data set with an extra density (ST1) protruding from the side of the matrix arm; map of 5.2 Å from 36,723 particles; both purified
T3 sequence: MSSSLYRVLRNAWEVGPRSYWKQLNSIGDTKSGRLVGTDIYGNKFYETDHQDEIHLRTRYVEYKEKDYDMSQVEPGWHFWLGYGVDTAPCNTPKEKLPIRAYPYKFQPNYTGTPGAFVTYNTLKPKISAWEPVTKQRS

With “PSST subunit of respiratory complex I from Yarrowia lipolytica” the binding [1] was “binds”.
With “accessory subunit NUFM of respiratory complex I from Yarrowia lipolytica” the binding [2] was “binds”.
“accessory sulfur transferase subunit ST1 of Yarrowia lipolytica complex I” was tested, and the binding [3] was “binds”.

From PMC6168287
